Paper PMC7442798
Results are given in words; binding and its absence hold for the method and conditions named. Binding seen in cells or lysates may run through a third protein. Some binding calls cover weakened binding; strength is not graded here. For some of these results: Sequences can lack the tags named with a protein. One block for each molecule: values may come before it.

Protein sequences, listed by entry. Tags and fused reporters are not part of them.
UniProt Q14258: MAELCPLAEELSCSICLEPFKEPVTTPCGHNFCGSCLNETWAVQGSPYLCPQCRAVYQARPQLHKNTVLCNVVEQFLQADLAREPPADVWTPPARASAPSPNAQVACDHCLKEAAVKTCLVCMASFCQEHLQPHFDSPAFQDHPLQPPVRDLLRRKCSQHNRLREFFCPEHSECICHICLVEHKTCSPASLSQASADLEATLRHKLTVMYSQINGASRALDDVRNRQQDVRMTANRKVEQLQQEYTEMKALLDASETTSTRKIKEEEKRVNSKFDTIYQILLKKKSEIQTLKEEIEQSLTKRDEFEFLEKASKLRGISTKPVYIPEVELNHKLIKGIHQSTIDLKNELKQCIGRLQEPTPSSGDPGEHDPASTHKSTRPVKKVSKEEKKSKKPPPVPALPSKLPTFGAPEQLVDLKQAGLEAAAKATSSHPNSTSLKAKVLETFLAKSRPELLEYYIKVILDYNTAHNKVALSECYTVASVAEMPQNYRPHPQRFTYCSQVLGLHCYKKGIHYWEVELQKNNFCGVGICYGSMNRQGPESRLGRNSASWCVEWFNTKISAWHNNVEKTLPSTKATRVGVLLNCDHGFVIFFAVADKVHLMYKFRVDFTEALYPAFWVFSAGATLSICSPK

Experiments:
[1] = target: T1, endogenous OTUD5 (human (endogenous in Hep3B)) (UniProt Q96G74); experiment: co-IP; endogenous proteins; Hep3B cell lysates incubated with control IgG or specific antibody (anti-OTUD5 or anti-TRIM25) overnight at 4 °C, Protein A/G beads, western blotting
T1 sequence: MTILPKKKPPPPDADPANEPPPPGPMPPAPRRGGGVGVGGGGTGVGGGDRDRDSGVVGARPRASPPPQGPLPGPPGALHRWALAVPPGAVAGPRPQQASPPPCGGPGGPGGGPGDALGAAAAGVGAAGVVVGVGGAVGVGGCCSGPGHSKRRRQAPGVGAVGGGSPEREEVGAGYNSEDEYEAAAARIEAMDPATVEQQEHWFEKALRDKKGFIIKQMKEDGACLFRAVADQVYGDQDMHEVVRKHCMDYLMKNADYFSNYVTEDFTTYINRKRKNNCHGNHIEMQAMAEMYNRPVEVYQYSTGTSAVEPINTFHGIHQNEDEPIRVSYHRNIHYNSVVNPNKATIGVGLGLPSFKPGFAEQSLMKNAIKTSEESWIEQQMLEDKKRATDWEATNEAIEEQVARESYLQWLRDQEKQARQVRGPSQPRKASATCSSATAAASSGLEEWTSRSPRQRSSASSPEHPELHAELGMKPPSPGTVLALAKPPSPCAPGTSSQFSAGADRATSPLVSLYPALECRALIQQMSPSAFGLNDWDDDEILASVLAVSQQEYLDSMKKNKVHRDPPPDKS

[2] = target: T2, Flag-tagged wild-type OTUD5 (human) (UniProt Q96G74); experiment: co-IP; Hep3B cells transfected with Flag-OTUD5-WT or Flag-OTUD5-ΔUIM; TRIM25 coprecipitated with the Flag-tagged protein
T2 sequence: T1 sequence

[3] = target: T2, Flag-tagged wild-type OTUD5 (human); experiment: co-IP; OTUD5 complex purified on anti-Flag M2 beads from the stable Flag-OTUD5/Hep3B cell line, analysed by western blotting
[4] = target: TRIM25 E3 ubiquitin ligase (human (endogenous in Hep3B)) (UniProt Q14258); experiment: co-IP; endogenous proteins; Hep3B cell lysates incubated with control IgG or specific antibody (anti-OTUD5 or anti-TRIM25) overnight at 4 °C, Protein A/G beads, western blotting

- binding [1]: binds
- binding [2]: binds
- binding [3]: binds
Molecule: TRIM25 E3 ubiquitin ligase (from UniProt Q14258 1-630)

- binding [4]: binds
B1: endogenous OTUD5 (enzyme, UniProt Q96G74 1-571)
chain: T1 sequence
